Data published in US20060257938A1, “Method of screening for drugs that block ligand binding to a lipid binding protein” (priority 2005, published 2006).

B1: 74T, 72A (protein, listed as Rattus norvegicus)
chain: AFDGTWKVDRNENYEKFMEKMGINVVKRKLGAHDNLKLTITQEGNKFTVKESSNFRNIDVVFELGVDFAYSAATGTELTGTWTMEGNKLVGKFKRVDNGKELIAVREISGNELIQTYTYEGVEAKRIFKKE
modifications: PEPTIDE (1)...(131) wild-type rat intestinal fatty acid binding protein
B2: 78A3, 72A (protein, listed as Rattus norvegicus)
chain: B1 chain with T74D, L78A
modifications: PEPTIDE (1)...(131) wild-type rat intestinal fatty acid binding protein
B3: 78C2, 72A (protein, listed as Rattus norvegicus)
chain: B1 chain with T74D, L78C
modifications: PEPTIDE (1)...(131) wild-type rat intestinal fatty acid binding protein
B4: 78F1, 72A (protein, listed as Rattus norvegicus)
chain: B1 chain with T74D, L78F
modifications: PEPTIDE (1)...(131) wild-type rat intestinal fatty acid binding protein
B5: 78H1, 72A (protein, listed as Rattus norvegicus)
chain: B1 chain with T74D, L78H
modifications: PEPTIDE (1)...(131) wild-type rat intestinal fatty acid binding protein
B6: 78I1, 72A (protein, listed as Rattus norvegicus)
chain: B1 chain with T74D, L78I
modifications: PEPTIDE (1)...(131) wild-type rat intestinal fatty acid binding protein
B7: 78M1, 72A (protein, listed as Rattus norvegicus)
chain: B1 chain with T74D, L78M
modifications: PEPTIDE (1)...(131) wild-type rat intestinal fatty acid binding protein
B8: 78T1, 72A (protein, listed as Rattus norvegicus)
chain: B1 chain with T74D, L78T
modifications: PEPTIDE (1)...(131) wild-type rat intestinal fatty acid binding protein
B9: 78W1, 72A (protein, listed as Rattus norvegicus)
chain: B1 chain with T74D, L78W
modifications: PEPTIDE (1)...(131) wild-type rat intestinal fatty acid binding protein
B10: 82A, 72A (protein, listed as Rattus norvegicus)
chain: B1 chain with T74D, W82A
modifications: PEPTIDE (1)...(131) wild-type rat intestinal fatty acid binding protein
B11: 82A1, 72A (protein, listed as Rattus norvegicus)
chain: B1 chain with T74D, W82A
modifications: PEPTIDE (1)...(131) wild-type rat intestinal fatty acid binding protein
B12: 82F1, 72A (protein, listed as Rattus norvegicus)
chain: B1 chain with T74D, W82F
modifications: PEPTIDE (1)...(131) wild-type rat intestinal fatty acid binding protein
B13: 82I3, 72A (protein, listed as Rattus norvegicus)
chain: B1 chain with T74D, W82I
modifications: PEPTIDE (1)...(131) wild-type rat intestinal fatty acid binding protein
B14: 82M1, 72A (protein, listed as Rattus norvegicus)
chain: B1 chain with T74D, W82M
modifications: PEPTIDE (1)...(131) wild-type rat intestinal fatty acid binding protein
B15: 82V1, 72A (protein, listed as Rattus norvegicus)
chain: B1 chain with T74D, W82V
modifications: PEPTIDE (1)...(131) wild-type rat intestinal fatty acid binding protein
B16: 82Y2, 72A (protein, listed as Rattus norvegicus)
chain: B1 chain with T74D, W82Y
modifications: PEPTIDE (1)...(131) wild-type rat intestinal fatty acid binding protein
B17: 91A, 72A (protein, listed as Rattus norvegicus)
chain: B1 chain with T74D, G91A
modifications: PEPTIDE (1)...(131) wild-type rat intestinal fatty acid binding protein
B18: 93L, 72A (protein, listed as Rattus norvegicus)
chain: B1 chain with T74D, F93L
modifications: PEPTIDE (1)...(131) wild-type rat intestinal fatty acid binding protein
B19: 93M, 72A (protein, listed as Rattus norvegicus)
chain: B1 chain with T74D, F93M
modifications: PEPTIDE (1)...(131) wild-type rat intestinal fatty acid binding protein
B20: 104R, 72A (protein, listed as Rattus norvegicus)
chain: B1 chain with T74D, A104R
modifications: PEPTIDE (1)...(131) wild-type rat intestinal fatty acid binding protein
B21: 104I1, 72A (protein, listed as Rattus norvegicus)
chain: B1 chain with T74D, A104I
modifications: PEPTIDE (1)...(131) wild-type rat intestinal fatty acid binding protein
B22: 104L1, 72A (protein, listed as Rattus norvegicus)
chain: B1 chain with T74D, A104L
modifications: PEPTIDE (1)...(131) wild-type rat intestinal fatty acid binding protein
B23: 104N1, 72A (protein, listed as Rattus norvegicus)
chain: B1 chain with T74D, A104N
modifications: PEPTIDE (1)...(131) wild-type rat intestinal fatty acid binding protein
B24: 104R1, 72A (protein, listed as Rattus norvegicus)
chain: B1 chain with T74D, A104R
modifications: PEPTIDE (1)...(131) wild-type rat intestinal fatty acid binding protein
B25: 104S2, 72A (protein, listed as Rattus norvegicus)
chain: B1 chain with T74D, A104S
modifications: PEPTIDE (1)...(131) wild-type rat intestinal fatty acid binding protein
B26: 104T1, 72A (protein, listed as Rattus norvegicus)
chain: B1 chain with T74D, A104T
modifications: PEPTIDE (1)...(131) wild-type rat intestinal fatty acid binding protein
B27: 104V1, 72A (protein, listed as Rattus norvegicus)
chain: B1 chain with T74D, A104V
modifications: PEPTIDE (1)...(131) wild-type rat intestinal fatty acid binding protein
B28: 104Y1, 72A (protein, listed as Rattus norvegicus)
chain: B1 chain with T74D, A104Y
modifications: PEPTIDE (1)...(131) wild-type rat intestinal fatty acid binding protein
B29: 106A1, 72A (protein, listed as Rattus norvegicus)
chain: B1 chain with T74D, R106A
modifications: PEPTIDE (1)...(131) wild-type rat intestinal fatty acid binding protein
B30: 106C2, 72A (protein, listed as Rattus norvegicus)
chain: B1 chain with T74D, R106C
modifications: PEPTIDE (1)...(131) wild-type rat intestinal fatty acid binding protein
B31: 106D3, 72A (protein, listed as Rattus norvegicus)
chain: B1 chain with T74D, R106D
modifications: PEPTIDE (1)...(131) wild-type rat intestinal fatty acid binding protein
B32: 106F1, 72A (protein, listed as Rattus norvegicus)
chain: B1 chain with T74D, R106F
modifications: PEPTIDE (1)...(131) wild-type rat intestinal fatty acid binding protein
B33: 106H2, 72A (protein, listed as Rattus norvegicus)
chain: B1 chain with T74D, R106H
modifications: PEPTIDE (1)...(131) wild-type rat intestinal fatty acid binding protein
B34: 106I3, 72A (protein, listed as Rattus norvegicus)
chain: B1 chain with T74D, R106I
modifications: PEPTIDE (1)...(131) wild-type rat intestinal fatty acid binding protein
B35: 106L3, 72A (protein, listed as Rattus norvegicus)
chain: B1 chain with T74D, R106L
modifications: PEPTIDE (1)...(131) wild-type rat intestinal fatty acid binding protein

test: Baseline fluorescence ratio Ro of probe in absence of analyte; conditions: average baseline fluorescence ratio Ro of the clone probe; substitutions with respect to SEQ ID NO: 2

Molecule | AvgOfRo
B1 | 0.27
B2 | 0.25
B3 | 0.35
B4 | 0.35
B5 | 0.39
B6 | 0.56
B7 | 0.33
B8 | 0.40
B9 | 0.32
B10 | 0.41
B11 | 0.31
B12 | 0.27
B13 | 0.24
B14 | 0.27
B15 | 0.33
B16 | 0.33
B17 | 0.21
B18 | 0.41
B19 | 0.33

same assay, conditions: baseline fluorescence ratio of probe

Molecule | Ro
B20 | 0.436

same assay, conditions: baseline fluorescence ratio of probe, no fatty acid

Molecule | AvgOfRo | Ro
B21 | 0.16 | –
B18 | – | 0.312
B22 | 0.12 | –
B23 | 0.40 | –
B20 | 0.40 | –
B24 | 0.47 | –
B25 | 0.24 | –
B26 | 0.22 | –
B27 | 0.16 | –
B28 | 0.88 | –
B29 | 0.25 | –
B30 | 0.24 | –
B31 | 0.30 | –
B32 | 0.31 | –
B33 | 0.31 | –
B34 | 0.30 | –
B35 | 0.28 | –

Where a chain is given by its changes, count along the chain named.
